PubChem BioAssay AID1159584 | Peter MacCallum Cancer Centre, 2016
This is a random part of about 18,000 reagents. Not all columns of the deposit are shown. Reagent sequences are not shown. The record does not give: the amount of reagent, the time to read-out.

- Assay: 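Knock-downs that harm CDH1-null cells more than parental MCF10A cells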 (primary screen)
- Cells: human MCF10A breast epithelial cells, parental and CDH1-null
- Reagents: siRNA against human genes
- Measured: 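Cell viability by CellTiter-Glo ATP luminescence, each line scaled to the mean of mock wells across plates, then CDH1-null over parental ratio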
- Scale: CDH1-null / parental viability ratio: higher = CDH1-null cells survive relatively better than parental

With PCGF1 (polycomb group ring finger 1), what was measured?
CDH1-null / parental viability ratio: 1

With ELOC (elongin C), what was measured?
CDH1-null / parental viability ratio: 1.04

For ASZ1, what does the deposit list?
CDH1-null / parental viability ratio: 0.75

With LEP (leptin), what was measured?
CDH1-null / parental viability ratio: 1.02

For GUCA1B (guanylate cyclase activator 1B), what was measured?
CDH1-null / parental viability ratio: 0.83

What is on record for CHAMP1 (chromosome alignment maintaining phosphoprotein 1)?
CDH1-null / parental viability ratio: 0.81

What did the screen give for RNF138 (ring finger protein 138)?
CDH1-null / parental viability ratio: 1.04

How did the screen score SLC22A9?
CDH1-null / parental viability ratio: 1.17

With NFATC2 (nuclear factor of activated T cells 2), what does the deposit list?
CDH1-null / parental viability ratio: 0.88

For AHCTF1 (AT-hook containing transcription factor 1), what does the deposit list?
CDH1-null / parental viability ratio: 0.92

How did the screen score HOXD10 (homeobox D10)?
CDH1-null / parental viability ratio: 0.94

With TRIM49B (tripartite motif containing 49B), how do the results read?
CDH1-null / parental viability ratio: 0.97

With CSF2 (colony stimulating factor 2), how do the results read?
CDH1-null / parental viability ratio: 0.91

What is on record for HOXC9 (homeobox C9)?
CDH1-null / parental viability ratio: 0.97

With NSMF, how do the results read?
CDH1-null / parental viability ratio: 1.15

For EEF1E1 (eukaryotic translation elongation factor 1 epsilon 1), what was measured?
CDH1-null / parental viability ratio: 1.6

How did the screen score NKX3-2 (NK3 homeobox 2)?
CDH1-null / parental viability ratio: 1.13

Targets listed so far whose gene name begins with C or c:
CHAMP1 (chromosome alignment maintaining phosphoprotein 1) — CDH1-null / parental viability ratio = 0.81
CSF2 (colony stimulating factor 2) — CDH1-null / parental viability ratio = 0.91

More entries:
What did the screen give for PRR21 (proline rich 21)?
CDH1-null / parental viability ratio: 0.83

For FAM131C (family with sequence similarity 131 member C), what does the deposit list?
CDH1-null / parental viability ratio: 1.25

With DEFB106B (defensin beta 106B), how do the results read?
CDH1-null / parental viability ratio: 1.35

With APBB2 (amyloid beta precursor protein binding family B member 2), how do the results read?
CDH1-null / parental viability ratio: 1.45

With RHBDL3 (rhomboid like 3), what was measured?
CDH1-null / parental viability ratio: 1.18

What is on record for SLC4A8?
CDH1-null / parental viability ratio: 0.98

How did the screen score THAP4 (THAP domain containing 4)?
CDH1-null / parental viability ratio: 0.93

With LRIG3 (leucine rich repeats and immunoglobulin like domains 3), what was measured?
CDH1-null / parental viability ratio: 0.84

What did the screen give for HRAS (HRas proto-oncogene, GTPase)?
CDH1-null / parental viability ratio: 0.91

What did the screen give for AKAP1 (A-kinase anchoring protein 1)?
CDH1-null / parental viability ratio: 0.87

What is on record for PON3 (paraoxonase 3)?
CDH1-null / parental viability ratio: 1.14

With ZCCHC9 (zinc finger CCHC-type containing 9), how do the results read?
CDH1-null / parental viability ratio: 0.93

What did the screen give for GPRC5D (G protein-coupled receptor class C group 5 member D)?
CDH1-null / parental viability ratio: 1.41

For RPL23AP82 (ribosomal protein L23a pseudogene 82), what was measured?
CDH1-null / parental viability ratio: 1.33

With EDNRA (endothelin receptor type A), how do the results read?
CDH1-null / parental viability ratio: 1.29

What did the screen give for DPYSL2 (dihydropyrimidinase like 2)?
CDH1-null / parental viability ratio: 1.16

For OGDHL (oxoglutarate dehydrogenase L), what does the deposit list?
CDH1-null / parental viability ratio: 1

How did the screen score SIL1 (SIL1 nucleotide exchange factor)?
CDH1-null / parental viability ratio: 1.56
